Experimental data reported in article PMC5016123.
These are yes or no findings as the source states them, for the method shown. In cells and extracts the contact can be indirect. Tags and fused reporters may be left off the sequences shown.

Biological target: T1, GST-fused polo-box domain (PBD) of Cdc5, wild type (S. cerevisiae) (UniProt P32562)
T1 sequence: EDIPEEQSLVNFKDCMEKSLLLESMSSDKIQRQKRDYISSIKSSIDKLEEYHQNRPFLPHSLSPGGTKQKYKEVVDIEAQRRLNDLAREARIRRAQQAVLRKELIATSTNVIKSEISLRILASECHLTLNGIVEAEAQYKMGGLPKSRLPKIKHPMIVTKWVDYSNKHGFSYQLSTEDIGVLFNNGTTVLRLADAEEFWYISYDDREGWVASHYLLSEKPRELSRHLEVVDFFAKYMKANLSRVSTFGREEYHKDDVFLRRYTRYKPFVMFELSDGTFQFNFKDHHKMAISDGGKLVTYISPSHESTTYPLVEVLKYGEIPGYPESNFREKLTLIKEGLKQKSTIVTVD
Assay: pull-down; GST-fused PBD, Cdc5 or GST only and an HA-tagged cohesin subunit or Scc1 fragment co-overexpressed in G2/M-arrested (benomyl) yeast cells; clarified lysate on glutathione-Sepharose 4B beads 1 h at 4 °C; 40 mM Hepes-KOH pH 7.4, 140 mM NaCl, 10% glycerol, 0.1% Triton X-100, 1 mM DTT, protease and phosphatase inhibitors; three washes; anti-HA and anti-GST Western blot

binding: no binding
Substance: HA-tagged Scc1 fragment ΔMC2 (S. cerevisiae) (domain or fragment)
